Among the data in patent US20190071416A1, “COMPOUNDS FOR TREATMENT OF CANCER AND EPIGENETICS” (Agency For Science, Technology and Research, priority 2015, published 2019) are IC50 values, retold here.

By UniProt entry, the sequences of proteins in these tests, tags left out.
UniProt Q9H7B4, whole entry: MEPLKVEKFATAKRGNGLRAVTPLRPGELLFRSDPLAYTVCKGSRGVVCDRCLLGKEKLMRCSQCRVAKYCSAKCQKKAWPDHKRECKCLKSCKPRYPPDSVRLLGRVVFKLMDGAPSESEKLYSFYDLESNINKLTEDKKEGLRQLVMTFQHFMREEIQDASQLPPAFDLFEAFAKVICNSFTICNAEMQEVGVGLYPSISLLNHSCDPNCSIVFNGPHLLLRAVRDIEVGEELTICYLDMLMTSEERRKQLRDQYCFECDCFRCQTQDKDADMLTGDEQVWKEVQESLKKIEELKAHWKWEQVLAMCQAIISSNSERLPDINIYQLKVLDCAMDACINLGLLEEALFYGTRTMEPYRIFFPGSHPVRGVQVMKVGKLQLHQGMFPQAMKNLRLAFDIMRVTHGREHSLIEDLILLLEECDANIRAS

The test deals with SMYD3 (Homo sapiens, UniProt Q9H7B4). The test is described as follows: SMYD3 biochemical assay (MTase-Glo, MAP3K2 peptide substrate). Particulars: Table 3. On the procedure:
A SMYD3 enzymatic assay was developed using Promega's Methyltransferase-Glo™ reagents. In the assay, SMYD3 catalyzes the methylation of the MAP3K2 peptide substrate by transferring a methyl group from SAM to MAP3K2 peptide and further converts the SAM to SAH. The SMYD3 methyltransferase activity is measured based on the amount of SAH produced from the reaction through the use of coupling enzymes that convert the SAH to ATP. The MTase-Glo detection solution then catalyzes the formation of light from ATP.
For the IC50 determination, the compounds were incubated with 0.4 μM of SMYD3 enzyme for 30 min in low volume 384 well plates. A final concentration of 1.0 μM and 10 μM SAM and MAP3K2 peptide were added and further incubated for 30 min at room temperature before adding the MTase Glo and detection reagent. Reaction signals were detected using microplate readers on luminescent mode (Safire Tecan). The IC50 was determined by non-linear regression, using GraphPad Prism version, 5.03.

pIC50: −log10 of the molar value. The structures given here were assigned with low confidence; some may be wrong.

Consider `CCCOC(=O)N1CCN(C(=O)c2ccc3c(Cl)cc(-c4ccc(C)c(O)c4)nc3c2)CC1`, for which the pIC50 is 6.55. The result for `O=C(c1ccc2c(Cl)c3c(nc2c1)CC(c1ccccn1)CC3)N1CCN(C(=O)c2cn(C3CC3)nn2)CC1` (stereo not shown) reads 7.09; that for `CCCOC(=O)N1CCN(C(=O)c2ccc3c(Cl)c(C)c(-c4ccccc4)nc3c2)CC1`, 6.42; that for `C#Cc1ccc(C2CCc3c(nc4cc(C(=O)N5CCN(C(=O)OCCC)CC5)ccc4c3Cl)C2)nc1` (stereo not shown), 6.39.

As for `C=CCOC(=O)N1CCN(C(=O)c2ccc3c(Cl)c(C)c(C)nc3c2)CC1`, the pIC50 is 5.11. The result for `CCCOC(=O)N1CCN(C(=O)c2ccc3c(Cl)c(CC)cnc3c2)CC1` reads 5.49; that for `CCCCC(=O)N1CCN(C(=O)c2ccc3c(Cl)cc(-c4ccccc4)nc3c2)CC1`, 6.54.

Usually pIC50 stands for the negative decadic logarithm of the IC50, by convention in mol/L. A higher pIC50 goes with a small IC50.
